Taken from: PubChem BioAssay AID602196 (INSERM, 2012)
Screen: 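Genes whose knock-down alters cisplatin killing of lung cancer cells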. Cell system: human A549 lung cancer cells. Reagents: siRNA pair against human genes. Timing: 48 h transfection before cisplatin; time from cisplatin to read-out not stated. Treatment: cisplatin at a dose killing half of control-siRNA cells; exact dose and duration not given. Measured: 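Cisplatin cell death as a shift from the 50% death seen with control siRNA; siRNAs toxic or growth-blocking alone scored 0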. Reading the numbers: two-siRNA summed score (-2 to +2): higher = both siRNAs protect from cisplatin killing; -2 means both sensitise; mean protection from cisplatin (shift in death): higher = protection from cisplatin killing. Rule for the call: 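Each siRNA scores 0 if harmful alone by LDH or WST-1, otherwise +1 if it reduces and -1 if it increases cisplatin killing; a gene is active when both siRNAs agree (sum +2 or -2)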. Meaning of the calls: active = both siRNAs shift cisplatin killing the same way; inactive = no consistent shift, or siRNA harmful alone.
Shown is an unselected part of about 23,000 deposited reagents. In the full data, 455 (2%) are marked active. 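Active includes both protection and sensitisation; some change values fall well beyond the stated -50 to +50 range.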 Unmarked entries are inactive. Further read-outs or replicates are left out here. No sequences are given here. Not stated in the record: the amount of reagent.

LOC442228 [SID131512801]
- two-siRNA summed score (-2 to +2): 0
- mean protection from cisplatin (shift in death) (%): 5.9

CIB2 (calcium and integrin binding family member 2) [SID131521879]
- two-siRNA summed score (-2 to +2): 1
- mean protection from cisplatin (shift in death) (%): 15.3

HAPLN4 (hyaluronan and proteoglycan link protein 4) [SID131504264]
- two-siRNA summed score (-2 to +2): 0
- mean protection from cisplatin (shift in death) (%): -5.9

LOC401477 [SID131516015]
- two-siRNA summed score (-2 to +2): 0
- mean protection from cisplatin (shift in death) (%): 10.1

PRODHLP (proline dehydrogenase like, pseudogene) [SID131514084]
- two-siRNA summed score (-2 to +2): 0
- mean protection from cisplatin (shift in death) (%): 7.4

FLJ90036 [SID131508890]
- two-siRNA summed score (-2 to +2): 0
- mean protection from cisplatin (shift in death) (%): 1.6

LOC440491 [SID131521267]
- two-siRNA summed score (-2 to +2): 1
- mean protection from cisplatin (shift in death) (%): 12.8

SLC13A4 [SID131510581]
- two-siRNA summed score (-2 to +2): 0
- mean protection from cisplatin (shift in death) (%): 3.4

GALR3 (galanin receptor 3) [SID131522466]
- two-siRNA summed score (-2 to +2): 1
- mean protection from cisplatin (shift in death) (%): 18.8

SYT7 (synaptotagmin 7) [SID131520001]
- two-siRNA summed score (-2 to +2): 1
- mean protection from cisplatin (shift in death) (%): 8.3

DNAJB5 (DnaJ heat shock protein family (Hsp40) member B5) [SID131517187]
- two-siRNA summed score (-2 to +2): 0
- mean protection from cisplatin (shift in death) (%): 12.7

ADH1A (alcohol dehydrogenase 1A (class I), alpha polypeptide) [SID131504748]
- two-siRNA summed score (-2 to +2): 0
- mean protection from cisplatin (shift in death) (%): -4.6

ZBTB39 (zinc finger and BTB domain containing 39) [SID131504860]
- two-siRNA summed score (-2 to +2): 0
- mean protection from cisplatin (shift in death) (%): -4.3

ABCF3 (ATP binding cassette subfamily F member 3) [SID131500870]
- two-siRNA summed score (-2 to +2): -1
- mean protection from cisplatin (shift in death) (%): -15

OBSCN [SID131514988]
- two-siRNA summed score (-2 to +2): 0
- mean protection from cisplatin (shift in death) (%): 8.5

DNAH5 (dynein axonemal heavy chain 5) [SID131506394]
- two-siRNA summed score (-2 to +2): 0
- mean protection from cisplatin (shift in death) (%): -1.6

USO1 (USO1 vesicle transport factor) [SID131513602]
- two-siRNA summed score (-2 to +2): 0
- mean protection from cisplatin (shift in death) (%): 6.8

ZNF662 (zinc finger protein 662) [SID131508513]
- two-siRNA summed score (-2 to +2): 0
- mean protection from cisplatin (shift in death) (%): 1.1

ALG11 (ALG11 alpha-1,2-mannosyltransferase) [SID131522781]
- two-siRNA summed score (-2 to +2): 1
- mean protection from cisplatin (shift in death) (%): 24.1

EXOSC2 (exosome component 2) [SID131520111]
- two-siRNA summed score (-2 to +2): 1
- mean protection from cisplatin (shift in death) (%): 8.7

HECTD3 (HECT domain E3 ubiquitin protein ligase 3) [SID131517742]
- two-siRNA summed score (-2 to +2): 0
- mean protection from cisplatin (shift in death) (%): 14.6

LOC389289 [SID131501325]
- two-siRNA summed score (-2 to +2): -1
- mean protection from cisplatin (shift in death) (%): -10.6

CROCC (ciliary rootlet coiled-coil, rootletin) [SID131503777]
- two-siRNA summed score (-2 to +2): 0
- mean protection from cisplatin (shift in death) (%): -7.8

METTL16 (methyltransferase 16, RNA N6-adenosine) [SID131501121]
- two-siRNA summed score (-2 to +2): -1
- mean protection from cisplatin (shift in death) (%): -12.2

ANKRD30BP3 (ANKRD30B pseudogene 3) [SID131519521]
- two-siRNA summed score (-2 to +2): 1
- mean protection from cisplatin (shift in death) (%): 6.1

GPRACR (GPR107 adjacent cis regulating lncRNA) [SID131502314]
- two-siRNA summed score (-2 to +2): -1
- mean protection from cisplatin (shift in death) (%): -3.5

CDCA2 (cell division cycle associated 2) [SID131514370]
- two-siRNA summed score (-2 to +2): 0
- mean protection from cisplatin (shift in death) (%): 7.7

RAB3D (RAB3D, member RAS oncogene family) [SID131510126]
- two-siRNA summed score (-2 to +2): 0
- mean protection from cisplatin (shift in death) (%): 2.9

LOC391706 [SID131518818]
- two-siRNA summed score (-2 to +2): 0
- mean protection from cisplatin (shift in death) (%): 29.2

TJP3 (tight junction protein 3) [SID131503405]
- two-siRNA summed score (-2 to +2): 0
- mean protection from cisplatin (shift in death) (%): -10.3

SCLY (selenocysteine lyase) [SID131507653]
- two-siRNA summed score (-2 to +2): 0
- mean protection from cisplatin (shift in death) (%): 0.1

SSX5 (SSX family member 5) [SID131518813]
- two-siRNA summed score (-2 to +2): 0
- mean protection from cisplatin (shift in death) (%): 28.8

POU4F1 (POU class 4 homeobox 1) [SID131522238]
- two-siRNA summed score (-2 to +2): 1
- mean protection from cisplatin (shift in death) (%): 17.1

METTL25B (methyltransferase like 25B) [SID131504522]
- two-siRNA summed score (-2 to +2): 0
- mean protection from cisplatin (shift in death) (%): -5.2

BRD8 (bromodomain containing 8) [SID131508653]
- two-siRNA summed score (-2 to +2): 0
- mean protection from cisplatin (shift in death) (%): 1.3

PSMD7 (proteasome 26S subunit, non-ATPase 7) [SID131522832]
- two-siRNA summed score (-2 to +2): 1
- mean protection from cisplatin (shift in death) (%): 26

USP35 (ubiquitin specific peptidase 35) [SID131512836]
- two-siRNA summed score (-2 to +2): 0
- mean protection from cisplatin (shift in death) (%): 5.9

BTN2A1 (butyrophilin subfamily 2 member A1) [SID131500768]
- two-siRNA summed score (-2 to +2): -1
- mean protection from cisplatin (shift in death) (%): -16.3

MRPL20 (mitochondrial ribosomal protein L20) [SID131506356]
- two-siRNA summed score (-2 to +2): 0
- mean protection from cisplatin (shift in death) (%): -1.6

ZFAND6 (zinc finger AN1-type containing 6) [SID131509054]
- two-siRNA summed score (-2 to +2): 0
- mean protection from cisplatin (shift in death) (%): 1.8

Entries listed so far whose target name starts with A or a:
ADH1A (alcohol dehydrogenase 1A (class I), alpha polypeptide) [SID131504748]
- two-siRNA summed score (-2 to +2): 0
- mean protection from cisplatin (shift in death) (%): -4.6

ABCF3 (ATP binding cassette subfamily F member 3) [SID131500870]
- two-siRNA summed score (-2 to +2): -1
- mean protection from cisplatin (shift in death) (%): -15

ALG11 (ALG11 alpha-1,2-mannosyltransferase) [SID131522781]
- two-siRNA summed score (-2 to +2): 1
- mean protection from cisplatin (shift in death) (%): 24.1

ANKRD30BP3 (ANKRD30B pseudogene 3) [SID131519521]
- two-siRNA summed score (-2 to +2): 1
- mean protection from cisplatin (shift in death) (%): 6.1
